Reference: patent US20190161553A1
These are yes or no findings as the source states them, for the method shown. Some binding calls cover weakened binding; strength is not graded here. For part of these data: Tags and fused reporters may be left off the sequences shown.

Chains of the proteins cited; added tags and fusions are not shown. Lines headed by an entry give the natural chain unless they say otherwise; changes in a name come on top.
UniProt Q02223: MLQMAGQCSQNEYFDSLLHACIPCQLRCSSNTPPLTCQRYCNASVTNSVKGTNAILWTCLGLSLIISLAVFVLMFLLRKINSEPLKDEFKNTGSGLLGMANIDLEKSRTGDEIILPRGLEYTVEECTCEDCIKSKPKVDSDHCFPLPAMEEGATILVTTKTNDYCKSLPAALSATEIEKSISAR

B1: BCMA-9 scFv (scFv)
scFv: EVQLVQSGGGLVKPGGSLRLSCAASGFTFSDYYMSWIRQAPGKGLEWVSYISSSGSTIYYADSVKGRFTISRDNAKNSLYLQMNSLRAEDTAVYYCARVDGDYVDDYWGQGTLVTVSSGGGGSGGGGSGGGGSSYELTQPPSVSVAPGQTARVTCGANNIGSKSVHWYQQKPGQAPMLVVYDDDDRPSGIPERFSGSNSGNTATLTISGVEAGDEADYFCHVWDRSRDHYVFGTGTKLTVL
B2: BCMA-55-LS CAR (anti-BCMA chimeric antigen receptor with BCMA-55 scFv, long spacer, CD28 transmembrane domain, 4-1BB and CD3-zeta endodomains) (protein)
chain: QSALTQPASVSASPGQSIAISCTGTSSDVGWYQQHPGKAPKLMIYEDSKRPSGVSNRFSGSKSGNTASLTISGLQAEDEADYYCSSNTRSSTLVFGGGTKLTVLGSRGGGGSGGGGSGGGGSLEMAEVQLVQSGAEMKKPGASLKLSCKASGYTFIDYYVYWMRQAPGQGLESMGWINPNSGGTNYAQKFQGRVTMTRDTSISTAYMELSRLRSDDTAMYYCARSQRDGYMDYWGQGTLVTVSSESKYGPPCPPCPAPPVAGPSVFLFPPKPKDTLMISRTPEVTCVVVDVSQEDPEVQFNWYVDGVEVHNAKTKPREEQFQSTYRVVSVLTVLHQDWLNGKEYKCKVSNKGLPSSIEKTISKAKGQPREPQVYTLPPSQEEMTKNQVSLTCLVKGFYPSDIAVEWESNGQPENNYKTTPPVLDSDGSFFLYSRLTVDKSRWQEGNVFSCSVMHEALHNHYTQKSLSLSLGKMFWVLVVVGGVLACYSLLVTVAFIIFWVKRGRKKLLYIFKQPFMRPVQTTQEEDGCSCRFPEEEEGGCELRVKFSRSADAPAYQQGQNQLYNELNLGRREEYDVLDKRRGRDPEMGGKPRRKNPQEGLYNELQKDKMAEAYSEIGMKGERRRGKGHDGLYQGLSTATKDTYDALHMQALPPR
B3: BCMA-55 scFv-Fc fusion protein (Fc fusion, not shown: a dimerising Fc or GST)
chain: QSALTQPASVSASPGQSIAISCTGTSSDVGWYQQHPGKAPKLMIYEDSKRPSGVSNRFSGSKSGNTASLTISGLQAEDEADYYCSSNTRSSTLVFGGGTKLTVLGSRGGGGSGGGGSGGGGSLEMAEVQLVQSGAEMKKPGASLKLSCKASGYTFIDYYVYWMRQAPGQGLESMGWINPNSGGTNYAQKFQGRVTMTRDTSISTAYMELSRLRSDDTAMYYCARSQRDGYMDYWGQGTLVTVSS
B4: BCMA-26 scFv (scFv)
scFv: EVQLVESGGGLVKPGGSLRLSCAASGFTFSDYYMSWIRQAPGKGLEWVSYISSSGSTIYYADSVKGRFTISRDNAKNSLYLQMNSLRAEDTAVYYCAKVDGPPSFDIWGQGTMVTVSSGGGGSGGGGSGGGGSSYVLTQPPSVSVAPGQTARITCGANNIGSKSVHWYQQKPGQAPMLVVYDDDDRPSGIPERFSGSNSGNTATLTISGVEAGDEADYFCHLWDRSRDHYVFGTGTKLTVL

Experiments:
[1] = target: human BCMA (B-cell maturation antigen) on the cell surface (human) (UniProt Q02223); assay: flow cytometry, BCMA-expressing HEK293 vs control cells
[2] = target: human BCMA residues 1-54 (linear and conformational CLIPS peptide libraries) (human); assay: CLIPS peptide-array ELISA
[3] = target: BCMA-Fc (soluble human BCMA fused at its C-terminus to an Fc region of IgG) (human) (UniProt Q02223); assay: flow cytometry of CAR-transduced CD4+ and CD8+ T cells stained with recombinant BCMA-Fc
[4] = target: human BCMA (B-cell maturation antigen) on the cell surface (human) (UniProt Q02223); assay: membrane proteome array (Retrogenix), scFv-Fc on HEK293 cells expressing human extracellular proteins

Binder	binding [1]	binding [2]	binding [3]	binding [4]
B1	binds	binds	–	–
B2	–	–	binds	–
B3	–	binds	–	binds
B4	–	binds	–	–
